From article PMC7994844
These are yes or no findings as the source states them, for the method shown. In cells and extracts the contact can be indirect. Some results given as binding are weak or reduced against the parent protein; the word gives no strength. For part of these data: Tags and fused reporters may be left off the sequences shown.

Sequences of proteins named here, by UniProt entry; tags and fusion partners are left off. Residues count along the entry.
UniProt P63208: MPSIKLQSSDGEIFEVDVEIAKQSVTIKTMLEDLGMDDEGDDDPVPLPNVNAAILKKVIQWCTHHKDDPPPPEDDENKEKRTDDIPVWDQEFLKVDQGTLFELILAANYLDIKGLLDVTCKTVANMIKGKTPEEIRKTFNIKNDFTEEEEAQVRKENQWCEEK
UniProt O00584, residues 25-256: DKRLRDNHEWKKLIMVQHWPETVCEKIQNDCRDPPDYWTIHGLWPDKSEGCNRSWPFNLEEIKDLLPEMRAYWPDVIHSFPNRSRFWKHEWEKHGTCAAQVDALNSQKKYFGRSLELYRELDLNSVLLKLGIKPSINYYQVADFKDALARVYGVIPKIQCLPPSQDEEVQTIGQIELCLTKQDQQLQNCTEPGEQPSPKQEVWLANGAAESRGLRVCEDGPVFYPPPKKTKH

Key:
Flag-FBXO6 (human) [1] = molecular target: T1, Flag-FBXO6 (human) (UniProt Q9NRD1); test: co-IP; 293T cells transfected with FLAG-tagged F-box proteins or FBXO6 deletion constructs for 36 h; anti-Flag M2 resin, eluted with 3x Flag peptides; immunoblot
T1 sequence: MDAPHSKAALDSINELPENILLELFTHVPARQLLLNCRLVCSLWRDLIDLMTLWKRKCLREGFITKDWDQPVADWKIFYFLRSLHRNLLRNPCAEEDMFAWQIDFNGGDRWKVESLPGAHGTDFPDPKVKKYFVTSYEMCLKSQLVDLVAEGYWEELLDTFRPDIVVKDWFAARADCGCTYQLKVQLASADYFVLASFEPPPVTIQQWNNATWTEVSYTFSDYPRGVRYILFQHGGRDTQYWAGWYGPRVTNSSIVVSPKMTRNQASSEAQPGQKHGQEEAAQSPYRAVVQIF

[2] = molecular target: T2, endogenous FBXO6 (human (endogenous in A2780 and OVCAR-3)) (UniProt Q9NRD1); test: co-IP; endogenous; A2780 cells treated with MG132 for 4 h; lysate immunoprecipitated with anti-FBXO6 antibody, nonspecific IgG as control; immunoblot
T2 sequence: T1 sequence

Flag-FBXO6 (human) [3] = molecular target: T1, Flag-FBXO6 (human); test: co-IP; OVCAR-3 cells transfected with Flag-FBXO6 WT or Mut for 36 h; anti-Flag M2 resin, eluted with 3x Flag peptides; immunoblot of endogenous RNASET2
[4] = molecular target: T3, Flag-tagged FBXO6 deletion construct: C-terminal FBA domain (human) (UniProt Q9NRD1); test: co-IP; 293T cells transfected with FLAG-tagged F-box proteins or FBXO6 deletion constructs for 36 h; anti-Flag M2 resin, eluted with 3x Flag peptides; immunoblot
T3 sequence: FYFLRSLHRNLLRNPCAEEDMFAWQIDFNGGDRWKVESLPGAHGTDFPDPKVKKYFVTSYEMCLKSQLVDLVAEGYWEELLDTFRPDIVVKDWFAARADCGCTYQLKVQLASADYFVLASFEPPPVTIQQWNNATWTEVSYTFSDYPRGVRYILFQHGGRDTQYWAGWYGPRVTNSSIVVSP

Flag-FBXO6 (human) [5] = molecular target: T1, Flag-FBXO6 (human); test: co-IP; 293T cells co-transfected with Flag-FBXO6 and HA-RNASET2 for 36 h; lysate immunoprecipitated with anti-Flag M2 resin; western blot

| binding (Flag-FBXO6 (human) [1]) | binding [2] | binding (Flag-FBXO6 (human) [3]) | binding [4] | binding (Flag-FBXO6 (human) [5]) | Substance |
| --- | --- | --- | --- | --- | --- |
| binds |  |  |  |  | SKP1 (from UniProt P63208 1-163) |
| binds | binds | binds | binds |  | endogenous RNASET2 (from UniProt O00584 25-256) |
|  |  |  |  | binds | HA-RNASET2 (from UniProt O00584 25-256) |
